The list shows a part of the results.
Experiments:
Assay in all cases: log2 fold change, soluble protein after heating vs DMSO (PISA); higher = thermal stabilisation; K562 cells, 10 uM, 30 min; active = over 0.2 and 3.5 SD of the protein, either way, in both replicates (recomputed)
[1] = compound: CS(=O)(=O)c1ccc(-c2cnc(N)c(C(=O)Nc3ccccc3)n2)cc1
In short: (§1)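 Quantification of soluble protein used TMTpro 16plex LC-MS/MS, with channel sums equalised. Samples were the supernatant after 21,000xg for 90 min of pooled aliquots from K562 cells (2×10^6 cells/mL) treated with 10 μM compound for 30 min, heated for 3 min over 48°C-58°C, and extracted in PBS with 0.5% NP-40 at 4°C. Values, from duplicates, describe thermal stability against control samples on a log2 fold-change scale.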

Chains of the proteins cited; added tags and fusions are not shown. Lines headed by an entry give the natural chain unless they say otherwise; changes in a name come on top.
UniProt Q7L211: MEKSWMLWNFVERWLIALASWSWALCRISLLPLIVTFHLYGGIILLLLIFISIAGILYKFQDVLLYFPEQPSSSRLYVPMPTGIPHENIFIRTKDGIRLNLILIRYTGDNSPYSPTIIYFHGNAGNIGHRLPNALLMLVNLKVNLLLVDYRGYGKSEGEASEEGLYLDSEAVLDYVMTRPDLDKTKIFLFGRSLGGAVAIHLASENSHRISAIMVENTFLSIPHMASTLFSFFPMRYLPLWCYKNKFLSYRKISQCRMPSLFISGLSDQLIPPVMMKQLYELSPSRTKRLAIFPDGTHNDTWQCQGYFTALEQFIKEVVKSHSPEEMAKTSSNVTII
UniProt Q9H845: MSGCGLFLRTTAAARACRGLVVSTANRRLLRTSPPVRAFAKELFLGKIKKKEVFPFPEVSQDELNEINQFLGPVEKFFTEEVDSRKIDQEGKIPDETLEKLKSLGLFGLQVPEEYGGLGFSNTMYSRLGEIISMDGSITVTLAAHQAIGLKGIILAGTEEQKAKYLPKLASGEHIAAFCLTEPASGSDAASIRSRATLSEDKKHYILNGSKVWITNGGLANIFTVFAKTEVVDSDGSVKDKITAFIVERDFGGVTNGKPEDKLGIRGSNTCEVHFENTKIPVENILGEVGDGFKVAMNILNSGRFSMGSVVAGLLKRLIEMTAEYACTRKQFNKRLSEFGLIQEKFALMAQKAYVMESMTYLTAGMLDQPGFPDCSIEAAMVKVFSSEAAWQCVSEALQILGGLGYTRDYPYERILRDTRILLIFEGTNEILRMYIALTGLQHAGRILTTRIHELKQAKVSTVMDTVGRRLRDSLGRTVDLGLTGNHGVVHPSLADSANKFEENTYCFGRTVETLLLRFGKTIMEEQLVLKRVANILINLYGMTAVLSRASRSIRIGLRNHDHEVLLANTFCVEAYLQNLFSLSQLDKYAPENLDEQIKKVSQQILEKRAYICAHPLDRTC
UniProt P42684, whole entry, looked up: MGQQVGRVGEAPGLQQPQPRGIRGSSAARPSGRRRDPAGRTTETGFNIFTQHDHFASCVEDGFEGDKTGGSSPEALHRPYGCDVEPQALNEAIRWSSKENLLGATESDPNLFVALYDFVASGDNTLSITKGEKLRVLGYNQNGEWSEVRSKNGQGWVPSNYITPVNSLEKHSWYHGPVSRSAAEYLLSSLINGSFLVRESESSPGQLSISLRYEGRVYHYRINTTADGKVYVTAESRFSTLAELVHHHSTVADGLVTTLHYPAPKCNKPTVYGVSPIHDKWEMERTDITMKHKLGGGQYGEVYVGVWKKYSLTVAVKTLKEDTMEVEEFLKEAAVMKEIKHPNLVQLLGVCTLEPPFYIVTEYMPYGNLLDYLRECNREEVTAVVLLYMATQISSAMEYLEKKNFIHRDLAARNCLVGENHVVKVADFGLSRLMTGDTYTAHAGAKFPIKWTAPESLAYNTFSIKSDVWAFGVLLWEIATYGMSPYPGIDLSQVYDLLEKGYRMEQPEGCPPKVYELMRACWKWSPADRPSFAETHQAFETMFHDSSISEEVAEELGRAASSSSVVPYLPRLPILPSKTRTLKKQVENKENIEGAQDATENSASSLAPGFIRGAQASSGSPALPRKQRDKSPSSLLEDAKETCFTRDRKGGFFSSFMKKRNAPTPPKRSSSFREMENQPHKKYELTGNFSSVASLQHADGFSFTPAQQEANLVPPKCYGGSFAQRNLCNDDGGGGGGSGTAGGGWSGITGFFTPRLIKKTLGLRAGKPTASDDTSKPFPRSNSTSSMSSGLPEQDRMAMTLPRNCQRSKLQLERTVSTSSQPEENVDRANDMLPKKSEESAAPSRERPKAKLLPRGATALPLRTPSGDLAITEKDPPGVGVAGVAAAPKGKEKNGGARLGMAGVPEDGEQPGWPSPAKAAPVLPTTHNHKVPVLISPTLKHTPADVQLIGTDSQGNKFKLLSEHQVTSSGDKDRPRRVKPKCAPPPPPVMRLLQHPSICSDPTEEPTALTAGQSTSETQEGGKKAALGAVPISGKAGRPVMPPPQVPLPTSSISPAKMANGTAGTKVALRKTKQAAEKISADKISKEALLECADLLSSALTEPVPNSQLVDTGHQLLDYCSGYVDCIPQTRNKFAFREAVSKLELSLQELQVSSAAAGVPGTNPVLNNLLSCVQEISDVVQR
UniProt Q9UKV3: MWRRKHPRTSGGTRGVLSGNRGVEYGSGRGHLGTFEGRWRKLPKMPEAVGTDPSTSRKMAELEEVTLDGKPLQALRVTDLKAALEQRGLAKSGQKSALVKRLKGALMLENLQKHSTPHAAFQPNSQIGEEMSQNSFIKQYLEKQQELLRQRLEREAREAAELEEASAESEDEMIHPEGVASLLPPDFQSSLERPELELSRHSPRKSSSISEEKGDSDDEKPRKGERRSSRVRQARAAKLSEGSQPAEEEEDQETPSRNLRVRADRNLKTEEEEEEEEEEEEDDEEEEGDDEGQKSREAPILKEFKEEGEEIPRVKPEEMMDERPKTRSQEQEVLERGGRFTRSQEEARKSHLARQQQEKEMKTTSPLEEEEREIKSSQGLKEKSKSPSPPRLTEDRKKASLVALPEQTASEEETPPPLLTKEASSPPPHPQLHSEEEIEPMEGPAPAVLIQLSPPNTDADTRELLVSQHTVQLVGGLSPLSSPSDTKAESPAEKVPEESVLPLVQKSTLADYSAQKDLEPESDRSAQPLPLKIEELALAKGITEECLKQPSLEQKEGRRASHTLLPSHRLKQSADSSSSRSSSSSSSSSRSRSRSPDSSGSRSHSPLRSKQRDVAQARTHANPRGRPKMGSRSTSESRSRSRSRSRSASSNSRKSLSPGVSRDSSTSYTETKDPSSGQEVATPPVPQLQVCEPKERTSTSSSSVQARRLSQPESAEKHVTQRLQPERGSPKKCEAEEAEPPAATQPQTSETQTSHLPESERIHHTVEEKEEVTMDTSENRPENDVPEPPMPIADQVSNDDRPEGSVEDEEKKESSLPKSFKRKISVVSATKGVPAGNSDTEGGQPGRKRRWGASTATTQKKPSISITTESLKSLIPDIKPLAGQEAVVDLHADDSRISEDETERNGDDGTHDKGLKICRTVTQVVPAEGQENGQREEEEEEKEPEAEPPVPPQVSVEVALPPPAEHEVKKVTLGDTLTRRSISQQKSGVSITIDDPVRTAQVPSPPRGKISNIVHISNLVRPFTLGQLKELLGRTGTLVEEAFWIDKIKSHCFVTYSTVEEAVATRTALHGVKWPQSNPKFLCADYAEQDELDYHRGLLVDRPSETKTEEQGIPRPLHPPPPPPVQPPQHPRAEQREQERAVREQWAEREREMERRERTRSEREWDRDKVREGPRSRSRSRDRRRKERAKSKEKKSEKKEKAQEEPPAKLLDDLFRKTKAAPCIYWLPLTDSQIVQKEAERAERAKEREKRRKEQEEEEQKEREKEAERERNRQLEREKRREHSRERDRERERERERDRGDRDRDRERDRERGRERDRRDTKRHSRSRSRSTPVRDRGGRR
UniProt Q9BR61: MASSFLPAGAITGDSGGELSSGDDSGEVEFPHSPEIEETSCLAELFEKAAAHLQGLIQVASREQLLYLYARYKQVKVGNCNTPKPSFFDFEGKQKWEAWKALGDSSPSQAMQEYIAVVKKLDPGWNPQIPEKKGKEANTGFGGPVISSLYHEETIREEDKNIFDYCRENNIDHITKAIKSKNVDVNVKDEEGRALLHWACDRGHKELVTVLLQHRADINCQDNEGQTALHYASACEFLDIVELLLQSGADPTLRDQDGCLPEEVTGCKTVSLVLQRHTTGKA
UniProt P14621: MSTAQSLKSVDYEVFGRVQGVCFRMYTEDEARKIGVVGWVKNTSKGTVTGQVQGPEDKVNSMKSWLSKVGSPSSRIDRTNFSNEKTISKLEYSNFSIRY
UniProt Q9NX38: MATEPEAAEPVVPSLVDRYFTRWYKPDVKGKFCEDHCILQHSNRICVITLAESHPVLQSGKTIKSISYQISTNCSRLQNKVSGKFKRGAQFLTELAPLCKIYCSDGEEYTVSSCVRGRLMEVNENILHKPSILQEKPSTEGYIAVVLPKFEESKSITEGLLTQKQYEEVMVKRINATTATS
UniProt Q76LX8: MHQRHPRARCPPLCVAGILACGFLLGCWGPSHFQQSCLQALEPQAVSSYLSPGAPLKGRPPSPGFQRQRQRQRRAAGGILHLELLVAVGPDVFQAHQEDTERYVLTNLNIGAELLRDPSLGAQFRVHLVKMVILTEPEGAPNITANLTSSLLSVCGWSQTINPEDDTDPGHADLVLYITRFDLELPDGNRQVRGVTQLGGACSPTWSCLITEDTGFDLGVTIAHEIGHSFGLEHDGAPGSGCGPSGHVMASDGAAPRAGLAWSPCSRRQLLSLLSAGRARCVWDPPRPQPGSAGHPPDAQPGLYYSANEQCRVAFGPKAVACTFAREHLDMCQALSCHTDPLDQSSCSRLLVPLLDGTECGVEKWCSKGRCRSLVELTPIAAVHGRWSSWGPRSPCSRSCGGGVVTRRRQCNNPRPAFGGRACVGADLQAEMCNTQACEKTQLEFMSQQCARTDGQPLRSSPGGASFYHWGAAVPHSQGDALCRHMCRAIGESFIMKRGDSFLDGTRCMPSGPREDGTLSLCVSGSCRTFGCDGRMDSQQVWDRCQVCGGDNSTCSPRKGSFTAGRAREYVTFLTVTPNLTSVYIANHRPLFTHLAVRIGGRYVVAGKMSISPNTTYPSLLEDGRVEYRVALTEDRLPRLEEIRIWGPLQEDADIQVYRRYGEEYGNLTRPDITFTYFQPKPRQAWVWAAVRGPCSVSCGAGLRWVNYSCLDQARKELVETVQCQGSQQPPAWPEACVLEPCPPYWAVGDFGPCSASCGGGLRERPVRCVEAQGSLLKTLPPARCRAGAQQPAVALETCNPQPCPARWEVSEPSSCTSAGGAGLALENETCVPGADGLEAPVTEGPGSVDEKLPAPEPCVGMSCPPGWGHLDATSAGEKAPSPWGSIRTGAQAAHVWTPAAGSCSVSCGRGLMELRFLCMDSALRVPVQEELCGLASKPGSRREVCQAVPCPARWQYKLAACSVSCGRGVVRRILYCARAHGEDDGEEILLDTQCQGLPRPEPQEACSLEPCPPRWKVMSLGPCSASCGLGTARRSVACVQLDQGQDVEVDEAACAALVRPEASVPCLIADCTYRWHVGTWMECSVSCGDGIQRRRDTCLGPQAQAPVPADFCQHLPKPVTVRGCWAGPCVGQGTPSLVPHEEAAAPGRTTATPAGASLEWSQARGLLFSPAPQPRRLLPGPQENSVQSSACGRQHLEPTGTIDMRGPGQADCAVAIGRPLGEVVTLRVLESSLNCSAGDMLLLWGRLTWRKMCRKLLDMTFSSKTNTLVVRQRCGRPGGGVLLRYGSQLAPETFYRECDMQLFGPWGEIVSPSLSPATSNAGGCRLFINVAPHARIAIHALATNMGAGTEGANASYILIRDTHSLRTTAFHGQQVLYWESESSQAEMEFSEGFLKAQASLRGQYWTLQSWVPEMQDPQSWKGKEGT
UniProt Q96QU6: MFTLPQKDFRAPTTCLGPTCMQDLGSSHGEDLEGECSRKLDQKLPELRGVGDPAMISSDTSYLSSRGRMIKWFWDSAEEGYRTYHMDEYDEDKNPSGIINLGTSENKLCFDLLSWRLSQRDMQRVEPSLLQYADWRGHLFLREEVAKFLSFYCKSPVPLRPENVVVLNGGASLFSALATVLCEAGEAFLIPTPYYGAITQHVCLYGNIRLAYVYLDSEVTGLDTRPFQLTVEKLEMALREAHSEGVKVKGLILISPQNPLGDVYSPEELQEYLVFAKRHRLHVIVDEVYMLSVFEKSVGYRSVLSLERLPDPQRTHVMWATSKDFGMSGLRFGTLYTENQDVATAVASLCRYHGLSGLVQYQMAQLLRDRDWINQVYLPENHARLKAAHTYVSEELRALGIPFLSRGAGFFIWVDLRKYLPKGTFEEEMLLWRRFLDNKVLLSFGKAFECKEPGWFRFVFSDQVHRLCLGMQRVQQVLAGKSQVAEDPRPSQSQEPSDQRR
UniProt P80404: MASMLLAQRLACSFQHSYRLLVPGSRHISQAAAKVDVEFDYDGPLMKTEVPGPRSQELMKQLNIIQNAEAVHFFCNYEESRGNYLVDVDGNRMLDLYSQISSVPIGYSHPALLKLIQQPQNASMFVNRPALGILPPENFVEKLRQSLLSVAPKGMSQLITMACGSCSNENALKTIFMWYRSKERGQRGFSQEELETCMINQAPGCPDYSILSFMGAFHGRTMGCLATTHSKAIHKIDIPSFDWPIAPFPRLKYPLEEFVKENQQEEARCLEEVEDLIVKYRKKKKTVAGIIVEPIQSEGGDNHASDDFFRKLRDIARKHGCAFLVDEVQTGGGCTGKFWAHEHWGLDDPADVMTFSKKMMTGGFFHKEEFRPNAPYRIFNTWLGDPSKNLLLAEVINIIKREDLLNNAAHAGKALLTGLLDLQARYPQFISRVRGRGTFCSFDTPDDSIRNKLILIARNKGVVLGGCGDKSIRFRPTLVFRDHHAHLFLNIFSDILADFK

crizotinib = compound: C[C@@H](Oc1cc(-c2cnn(C3CCNCC3)c2)cnc1N)c1c(Cl)ccc(F)c1Cl [crizotinib]
In short: as §1

[2] = compound: C[C@@H]1COCCN1C2=NC(=NC(=C2)C3(CC3)S(=O)(=O)C)C4=C5C=CNC5=CC=C4
In short: as §1

[3] = compound: C[C@H](C1=CC=C(C=C1)C(=O)NC2=C3C=CNC3=NC=C2)N
In short: as §1

gandotinib = compound: Cc1cc(Nc2cc(CN3CCOCC3)c3nc(C)c(Cc4ccc(Cl)cc4F)n3n2)n[nH]1 [gandotinib]
In short: as §1

[4] = compound: Cc1cc(SCc2sc(-c3ccc(C(F)(F)F)cc3)nc2C)ccc1OCC(=O)O
In short: as §1

doramapimod = compound: Cc1ccc(-n2nc(C(C)(C)C)cc2NC(=O)Nc2ccc(OCCN3CCOCC3)c3ccccc23)cc1 [doramapimod]
In short: as §1

ispinesib = compound: Cc1ccc(C(=O)N(CCCN)[C@@H](c2nc3cc(Cl)ccc3c(=O)n2Cc2ccccc2)C(C)C)cc1 [ispinesib]
In short: as §1

tozasertib = compound: Cc1cc(Nc2cc(N3CCN(C)CC3)nc(Sc3ccc(NC(=O)C4CC4)cc3)n2)n[nH]1 [tozasertib]
In short: as §1

duvelisib = compound: C[C@H](Nc1ncnc2nc[nH]c12)c1cc2cccc(Cl)c2c(=O)n1-c1ccccc1 [duvelisib]
In short: as §1

Row | Target | log2 fold change [1] | log2 fold change (crizotinib) | log2 fold change [2] | log2 fold change [3] | log2 fold change (gandotinib) | log2 fold change [4] | log2 fold change (doramapimod) | log2 fold change (ispinesib) | log2 fold change (tozasertib) | log2 fold change (duvelisib)
1 | AAMP (UniProt Q13685) | inactive: 0.027 | inactive: 0.115 | inactive: -0.007 | inactive: -0.006 | inactive: -0.047 | inactive: -0.03 | inactive: -0.037 | inactive: 0.038 | – | –
2 | ABCD4 (UniProt O14678) | inactive: 0.1 | inactive: -0.015 | inactive: -0.13 | inactive: -0.09 | – | – | inactive: 0.134 | inactive: -0.127 | inactive: 0.067 | –
3 | ABCC5 (UniProt O15440) | inactive: 0.045 | inactive: -0.011 | inactive: 0.031 | inactive: 0.088 | inactive: -0.05 | inactive: -0.011 | inactive: -0.023 | inactive: -0.071 | – | –
4 | ACADVL isoform 3 (UniProt P49748) | inactive: 0.042 | inactive: 0.021 | inactive: 0.078 | inactive: -0.058 | inactive: -0.01 | inactive: -0.005 | inactive: -0.065 | inactive: -0.01 | – | –
5 | ABHD16A (UniProt O95870) | inactive: -0.012 | inactive: 0.277 | inactive: 0.029 | inactive: 0.033 | inactive: 0.158 | inactive: 0.012 | inactive: 0.136 | inactive: 0.125 | – | –
6 | AAK1, A0A096LP25 | inactive: 0.138 | inactive: 0.124 | inactive: 0.012 | inactive: 0.365 | inactive: 0.103 | inactive: -0.048 | inactive: -0.013 | inactive: 0.011 | – | –
7 | ABHD13 (UniProt Q7L211) | inactive: -0.185 | inactive: 0.079 | inactive: -0.039 | – | inactive: -0.232 | inactive: 0.092 | inactive: -0.118 | inactive: 0.18 | inactive: 0.016 | inactive: -0.006
8 | ACSM3 (UniProt Q53FZ2) | inactive: -0.001 | inactive: -0.002 | inactive: 0.027 | inactive: -0.095 | inactive: -0.037 | inactive: 0.049 | inactive: 0.023 | inactive: 0.226 | – | –
9 | AASDH (UniProt Q4L235) | inactive: -0.04 | inactive: 0.07 | inactive: 0.142 | inactive: -0.058 | inactive: -0.066 | inactive: -0.034 | inactive: -0.161 | inactive: -0.236 | – | –
10 | ACAD9 (UniProt Q9H845) | inactive: 0.01 | inactive: 0.035 | inactive: 0.021 | inactive: -0.061 | inactive: -0.03 | inactive: -0.052 | inactive: -0.002 | inactive: 0.059 | – | –
11 | ABL2 (UniProt P42684) | inactive: 0.188 | inactive: 0.183 | inactive: 0.101 | – | – | – | inactive: 0.004 | inactive: -0.288 | inactive: -0.022 | –
12 | ACIN1 (UniProt Q9UKV3) | inactive: -0.011 | inactive: -0.014 | inactive: 0.068 | inactive: -0.12 | inactive: 0.01 | inactive: 0.002 | inactive: 0.029 | inactive: 0.007 | – | –
13 | ACBD6 (UniProt Q9BR61) | active: 0.386 | inactive: -0.36 | inactive: -0.041 | inactive: 0.075 | inactive: 0.076 | inactive: 0.082 | inactive: -0.048 | inactive: -0.14 | – | –
14 | AAR2 (UniProt Q9Y312) | inactive: -0.06 | inactive: -0.081 | inactive: 0.019 | inactive: 0.054 | inactive: -0.29 | inactive: 0.021 | inactive: -0.038 | inactive: 0.085 | – | –
15 | ACO2 (UniProt Q99798) | inactive: 0 | inactive: -0.022 | inactive: 0.102 | inactive: -0.085 | inactive: -0.088 | inactive: 0.078 | inactive: -0.026 | inactive: 0.041 | – | –
16 | ABCB6 (UniProt Q9NP58) | inactive: 0.03 | active: -0.457 | inactive: 0.093 | inactive: -0.057 | inactive: -0.031 | inactive: -0.028 | inactive: 0.049 | inactive: -0.207 | – | –
17 | ACP2 (UniProt P11117) | inactive: 0.06 | inactive: -0.051 | inactive: 0.017 | inactive: -0.016 | inactive: -0.071 | inactive: -0.031 | inactive: 0.016 | inactive: -0.036 | – | –

Row | Target | log2 fold change [1] | log2 fold change (crizotinib) | log2 fold change [2] | log2 fold change [3] | log2 fold change (gandotinib) | log2 fold change [4] | log2 fold change (doramapimod) | log2 fold change (ispinesib) | log2 fold change (tozasertib) | log2 fold change (duvelisib)
18 | AARS2 (UniProt Q5JTZ9) | inactive: 0.017 | inactive: -0.04 | inactive: 0.138 | inactive: -0.03 | inactive: -0.058 | inactive: 0.036 | inactive: 0.026 | active: -0.223 | – | –
19 | ABCD1 (UniProt P33897) | inactive: -0.082 | inactive: -0.173 | inactive: 0.082 | inactive: 0.028 | – | – | inactive: 0.025 | – | – | –
20 | ACACB (UniProt O00763) | inactive: 0.078 | inactive: -0.152 | inactive: -0.13 | inactive: 0.341 | inactive: 0.041 | inactive: 0.289 | inactive: 0.168 | inactive: -0.188 | – | –
21 | ACYP2 (UniProt P14621) | inactive: -0.064 | inactive: 0.077 | – | inactive: -0.209 | – | – | inactive: 0.071 | – | inactive: -0.005 | –
22 | ADAMTS5 (UniProt Q9UNA0) | inactive: 0.077 | inactive: 0.084 | – | inactive: -0.08 | inactive: 0.178 | inactive: -0.136 | inactive: 0.052 | inactive: -0.035 | – | –
23 | AAK1 (UniProt Q2M2I8) | inactive: 0.043 | inactive: 0.169 | inactive: 0.028 | active: 0.412 | inactive: 0.091 | inactive: 0.096 | inactive: -0.095 | inactive: 0.091 | – | –
24 | ACSL4 (UniProt O60488) | inactive: 0.02 | active: -0.338 | inactive: 0.07 | inactive: 0.099 | inactive: -0.089 | inactive: 0.151 | inactive: 0.01 | active: -0.311 | – | –
25 | ABITRAM (UniProt Q9NX38) | inactive: 0.055 | inactive: 0.012 | inactive: 0.1 | inactive: -0.011 | inactive: 0.169 | inactive: 0.079 | inactive: 0.006 | inactive: 0.108 | – | –
26 | ABCB4 (UniProt P21439) | – | – | – | – | – | – | – | inactive: -0.037 | inactive: -0.12 | –
27 | ABCC10 (UniProt Q5T3U5) | inactive: 0.046 | – | inactive: 0.047 | – | inactive: 0.05 | inactive: 0.235 | – | inactive: -0.39 | inactive: -0.035 | inactive: 0.151
28 | ADAMTS13 (UniProt Q76LX8) | inactive: -0.15 | – | inactive: -0.132 | – | – | inactive: -0.121 | – | – | – | inactive: -0.211
29 | ACCS (UniProt Q96QU6) | – | – | inactive: -0.15 | inactive: -0.06 | inactive: 0.029 | – | – | inactive: 0.004 | inactive: -0.118 | –
30 | ABAT (UniProt P80404) | – | – | inactive: -0.108 | – | – | – | – | – | – | –
31 | ACTRT1 (UniProt Q8TDG2) | – | – | inactive: 0 | – | inactive: -0.108 | inactive: -0.249 | – | – | – | inactive: 0.154
32 | ABCA7 (UniProt Q8IZY2) | inactive: -0.091 | – | inactive: -0.324 | inactive: -0.025 | inactive: 0.382 | – | – | – | – | –
33 | ACSF2 isoform 2 (UniProt Q96CM8) | – | – | – | – | inactive: 0.118 | – | – | inactive: 0.014 | – | –
34 | ACTBL2 (UniProt Q562R1) | inactive: -0.022 | – | inactive: -0.005 | – | inactive: -0.828 | inactive: -0.299 | – | inactive: -0.307 | – | –

Single records, from the list above. Order of values: log2 fold change [1]	log2 fold change (crizotinib)	log2 fold change [2]	log2 fold change [3]	log2 fold change (gandotinib)	log2 fold change [4]	log2 fold change (doramapimod)	log2 fold change (ispinesib)	log2 fold change (tozasertib)	log2 fold change (duvelisib)
ABCA7 (UniProt Q8IZY2) is entered as inactive: -0.091	–	inactive: -0.324	inactive: -0.025	inactive: 0.382	–	–	–	–	–
ACYP2 (UniProt P14621) is entered as inactive: -0.064	inactive: 0.077	–	inactive: -0.209	–	–	inactive: 0.071	–	inactive: -0.005	–

Source: the supplement of paper PMC10849652
